Results taken from US20250262192A1, “PROGNOSTIC PATHWAYS FOR HIGH RISK SEPSIS PATIENTS” (KONINKLIJKE PHILIPS N.V., priority 2021, published 2025).
At least one compound was matched to its structure with a doubt left.

Key:
[1] = system: TGFbeta signaling pathway; assay: THP-1 sepsis treatment model, qPCR-based STP activity score; assay type: cell-based; conditions: THP-1 monocyte sepsis treatment model (Table 11)
Method: (§1) In the treatment model the pathway inhibitor and LPS were added at the same time and the THP-1 cells were incubated for 24 hours prior to isolating RNA and determining pathway activities.
(§2) For the first application, THP-1 cells were pre-incubated for 24 hours with the drug of choice, and subsequently LPS was added for 24 hours. For the treatment application, the drug and LPS were added simultaneously to the cells for 24 hours. Importantly: Some drugs needs processing in the body to become effective, this is the case for some of the androgen receptor (AR) pathway inhibitors, such as bicalutamide. In this case we have also tested the active variant of the drug (in the case of bicalutamide: (R-)bicalutamide).
(§3) LPS is considered the main mediator of the sepsis symptoms. An in vitro experiment was designed where monocytes were stimulated with LPS and subsequently treated with a variety of inhibitors. Monocytes were chosen as they have been described to play a major role in sepsis, see for example Sukhacheva, [34], Clinical Laboratory Int. 26 Aug. […]
(§4) After stimulation cells were harvested and RNA was extracted using the RNeasy mini kit (Qiagen, 74104). qPCR-based STP activity scores were calculated using the Philips Research OncoSignal platform (www.philips.com/oncosignal), as described herein. […]

AR signaling pathway = assay: as above; assay type: cell-based; conditions: THP-1 monocyte sepsis treatment model (Table 11)
Method: as §1, §2, §3, §4

Cc1cccc(-c2[nH]c(CNc3ccccc3F)nc2-c2ccc3ncnn3c2)n1 [Vactosertib]
Effect on TGFbeta PAS in LPS-stimulated THP-1 monocytes [1]: could lower
Effect on AR PAS in LPS-stimulated THP-1 monocytes (AR signaling pathway): could reduce
